For 39 sequences, binding signal results are on record in article PMC7862700.

This is a selection; strong and weak results do not stand in their true shares. For part of these data: At the low end of the ranking the order means little. This is one part of the list. For part of these data: Construct or isoform of the protein are uncertain.

The first test has as its target T1, GABPA (UniProt Q06546).
T1 sequence: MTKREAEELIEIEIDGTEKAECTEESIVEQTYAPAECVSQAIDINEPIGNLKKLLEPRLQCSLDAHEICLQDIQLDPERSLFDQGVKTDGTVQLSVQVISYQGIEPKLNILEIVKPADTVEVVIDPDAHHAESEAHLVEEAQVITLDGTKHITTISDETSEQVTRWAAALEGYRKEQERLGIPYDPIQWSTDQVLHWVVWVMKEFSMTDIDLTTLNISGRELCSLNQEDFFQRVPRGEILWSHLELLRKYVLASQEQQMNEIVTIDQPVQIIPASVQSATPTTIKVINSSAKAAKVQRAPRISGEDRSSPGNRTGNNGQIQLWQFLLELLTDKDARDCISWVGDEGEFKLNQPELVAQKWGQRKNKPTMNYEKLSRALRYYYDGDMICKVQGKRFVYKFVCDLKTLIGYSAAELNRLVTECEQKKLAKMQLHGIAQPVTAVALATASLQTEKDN
Kind of test: DAPPL (digital affinity profiling via proximity ligation, sequencing). To be noted: 10 mM Tris-HCl pH 7.5, 50 mM NaCl, 1 mM DTT, 4% glycerol, room temperature, 30 min; GST-TFs on glutathione beads, 16-mer random dsDNA library, 0.1% …; high values mean tight binding; double strand, one strand shown; scale: fold enrichment (6-mer frequency, TF over GST control).
The sequence GCATGG came in with a binding signal of 0.93.
As for CCGGGA, the binding signal came out at 0.457.
TCGGGA registered a binding signal of 0.379.
On the same count and under the same terms, to TGTCGG belongs 0.326; to AGAGAG, 0.488.
The same measure, in the same setting: to CGTGGC belongs 0.911.
Sequence GTCGGA returned a binding signal of 0.162.
Same read-out and setting: to CAGTCG belongs 0.185.
The same measure, in the same setting: in the case of GGGTGA it was 0.644.
On the same count and under the same terms, in the case of AGACTG it was 0.538.
GCGCAA displayed a binding signal of 0.859.
The same measure, in the same setting: in the case of GTGGGA it was 0.561.
Same read-out and setting: to AGAGAC belongs 0.476; to ACGGGT, 0.794; to CGTGAT, 0.486.
On the same count and under the same terms, to CCGTTG belongs 0.852; to ACGTGG, 0.593; to GCCGTA, 0.918.
In turn, CCCAGG yielded a binding signal of 0.714.
Still for that read-out and setting: in the case of CGGTCC it was 0.867; in that of GATCGC, 0.868.
GGCAAG gave a binding signal of 0.714.
On the same count and under the same terms, to TGGCGG belongs 0.75; to GCGCGG, 0.846.
Still for that read-out and setting: in the case of GACACA it was 0.839; in that of GTGTAG, 0.619; in that of CGAGCG, 0.889.
Still for that read-out and setting: to GAAGGG belongs 0.855; to TCAGTC, 0.62; to AGTCCG, 0.558.
CACAGT: the binding signal was found to be 0.786.
The same measure, in the same setting: in the case of AAACGT it was 0.927.
On the same count and under the same terms, in the case of GTATAG it was 0.866; in that of AGGCAA, 0.74.
The sequence TTCGGA gave a binding signal of 0.721.
For the sequence ACAGTC, the binding signal stood at 0.461.
Same read-out and setting: in the case of GAGATG it was 0.708; in that of AATCGG, 0.543; in that of GAGCTG, 0.694.

Another test has as its target T2, ETS1 (UniProt P14921).
T2 sequence: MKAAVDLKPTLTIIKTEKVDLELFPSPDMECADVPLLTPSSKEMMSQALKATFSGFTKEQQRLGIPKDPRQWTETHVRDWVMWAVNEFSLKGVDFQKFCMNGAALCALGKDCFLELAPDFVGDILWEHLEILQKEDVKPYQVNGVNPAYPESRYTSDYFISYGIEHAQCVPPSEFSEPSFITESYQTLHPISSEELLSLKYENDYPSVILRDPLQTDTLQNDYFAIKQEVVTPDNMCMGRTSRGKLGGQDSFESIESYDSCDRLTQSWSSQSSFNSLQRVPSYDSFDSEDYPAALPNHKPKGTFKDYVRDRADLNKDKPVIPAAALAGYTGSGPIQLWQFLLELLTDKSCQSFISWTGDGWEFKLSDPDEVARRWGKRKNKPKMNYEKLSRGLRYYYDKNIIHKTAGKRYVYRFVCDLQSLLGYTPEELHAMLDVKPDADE
Described as above. To be noted: 10 mM Tris-HCl pH 7.5, 50 mM NaCl, 1 mM DTT, 4% glycerol, room temperature, 30 min; GST-TFs on glutathione beads, 16-mer random dsDNA library, 0.1% …; high values mean tight binding; double strand, one strand shown; scale: fold enrichment (6-mer frequency, TF over GST control).
As to GCATGG, the binding signal is 0.847.
In turn, CCGGGA came in with a binding signal of 0.451.
Still for that read-out and setting: to TCGGGA belongs 0.39.
On the same count and under the same terms, in the case of TGTCGG it was 0.352; in that of AGAGAG, 0.47.
The same measure, in the same setting: to CGTGGC belongs 0.927.
In turn, GTCGGA registered a binding signal of 0.16.
Same read-out and setting: in the case of CAGTCG it was 0.157.
On the same count and under the same terms, in the case of GGGTGA it was 0.676; in that of AGACTG, 0.519; in that of GCGCAA, 0.873.
As for GTGGGA, the binding signal turned out to be 0.514.
In turn, AGAGAC registered a binding signal of 0.493.
Still for that read-out and setting: in the case of ACGGGT it was 0.925; in that of CGTGAT, 0.475; in that of CCGTTG, 0.915.
Still for that read-out and setting: in the case of ACGTGG it was 0.551; in that of GCCGTA, 0.842.
Still for that read-out and setting: in the case of CCCAGG it was 0.817; in that of CGGTCC, 0.983.
The sequence GATCGC displayed a binding signal of 0.87.
The same measure, in the same setting: to GGCAAG belongs 0.725; to TGGCGG, 0.816; to GCGCGG, 0.803.
Sequence GACACA gave a binding signal of 0.996.
Still for that read-out and setting: in the case of GTGTAG it was 0.683; in that of CGAGCG, 0.922.
Still for that read-out and setting: in the case of GAAGGG it was 0.825.
Consider TCAGTC, for which the binding signal came out at 0.573.
Still for that read-out and setting: in the case of AGTCCG it was 0.575; in that of CACAGT, 0.719.
On the same count and under the same terms, in the case of AAACGT it was 0.952.
On the same count and under the same terms, in the case of GTATAG it was 0.911; in that of AGGCAA, 0.676.
On to TTCGGA, for which the binding signal came out at 0.707.
On the same count and under the same terms, to ACAGTC belongs 0.414; to GAGATG, 0.716.
Same read-out and setting: in the case of AATCGG it was 0.545; in that of GAGCTG, 0.694.

Another test deals with T3, SPDEF (UniProt O95238).
T3 sequence: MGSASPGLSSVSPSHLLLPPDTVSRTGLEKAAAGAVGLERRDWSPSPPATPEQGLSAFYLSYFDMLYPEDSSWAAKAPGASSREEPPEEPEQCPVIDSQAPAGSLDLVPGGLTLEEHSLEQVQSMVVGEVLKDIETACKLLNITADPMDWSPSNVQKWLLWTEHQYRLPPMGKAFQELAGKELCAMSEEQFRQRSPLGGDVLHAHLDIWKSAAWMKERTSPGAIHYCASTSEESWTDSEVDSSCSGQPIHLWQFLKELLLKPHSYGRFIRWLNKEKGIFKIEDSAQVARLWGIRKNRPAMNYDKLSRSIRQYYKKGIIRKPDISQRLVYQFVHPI
Described as above. To be noted: 10 mM Tris-HCl pH 7.5, 50 mM NaCl, 1 mM DTT, 4% glycerol, room temperature, 30 min; GST-TFs on glutathione beads, 16-mer random dsDNA library, 0.1% …; high values mean tight binding; double strand, one strand shown; scale: fold enrichment (6-mer frequency, TF over GST control).
In the case of GCATGG, the binding signal was determined as 0.745.
For the sequence CCGGGA, the binding signal was 0.728.
Still for that read-out and setting: to TCGGGA belongs 0.372; to TGTCGG, 0.41; to AGAGAG, 0.477.
For the sequence CGTGGC, the binding signal was determined as 0.908.
The same measure, in the same setting: to GTCGGA belongs 0.159; to CAGTCG, 0.173; to GGGTGA, 0.635.
The same measure, in the same setting: in the case of AGACTG it was 0.484.
On the same count and under the same terms, in the case of GCGCAA it was 0.827; in that of GTGGGA, 0.51.
The sequence AGAGAC showed a binding signal of 0.442.
Still for that read-out and setting: to ACGGGT belongs 0.898.
Turning to CGTGAT, the binding signal is 0.528.
Still for that read-out and setting: in the case of CCGTTG it was 0.925; in that of ACGTGG, 0.524; in that of GCCGTA, 0.847.
On the same count and under the same terms, to CCCAGG belongs 0.666; to CGGTCC, 1.04; to GATCGC, 0.779.
The same measure, in the same setting: to GGCAAG belongs 0.628; to TGGCGG, 0.703; to GCGCGG, 0.796.
Consider GACACA, for which the binding signal came to 0.874.
GTGTAG gave a binding signal of 0.678.
Take CGAGCG: the binding signal came to 0.906.
The same measure, in the same setting: in the case of GAAGGG it was 0.751.
On the same count and under the same terms, to TCAGTC belongs 0.611; to AGTCCG, 0.642; to CACAGT, 0.701.
On the same count and under the same terms, in the case of AAACGT it was 0.938; in that of GTATAG, 0.823.
Sequence AGGCAA had a binding signal of 0.655.
Regarding TTCGGA, the binding signal was 0.736.
Still for that read-out and setting: to ACAGTC belongs 0.405.
Same read-out and setting: to GAGATG belongs 0.657; to AATCGG, 0.522; to GAGCTG, 0.766.
